{"source": "paper PMC12672779", "molecular_target": "cardiac troponin I (UniProt P19429)", "experiment": "fluorescence turn-on of QD-SPION-aptamer sensor", "settings": "2-40 ng/mL troponin I, LOD 13.3 ng/mL (not a Kd); C6 spacer (position and terminal group not stated); coupled to CdSe/ZnS QD-SPION conjugate by EDC/NHS; Tris-HCl buffer (concentration and pH not stated), 30 min rotation at room temperature (selectivity assay); aptamer coupling in MES pH 5.8; label: none on the DNA, QD fluorescence as read-out; single-stranded DNA", "note": "The exact form of at least one protein or probe is not confirmed.", "data": [{"sequence": "CGTGCAGTACGCCAACCTTTCTCATGCGCTGCCCCTCTTA [Tro4 aptamer]", "values": [{"measurement": "binding result", "value": "binds"}]}]}
